Results on 105 sequences are retold here after PubChem BioAssay AID1347423 (Functional Genomics Laboratory (NCATS/FGL), 2020).

The campaign covered roughly 52,000 sequences. About 210 (0.4%) were called active.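 Rule for the calls: active = gene whose silencing raises cell survival under the drug, median off-target-corrected z-score across its silencing RNAs 2 or more; inactive = the rest.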 The list shows a part of the results.

The test in a line: Resistance to Poly (ADP-Ribose) Polymerase inhibitor: Gene Identification via Genome-wide siRNA Screen. To be noted: mouse BRCA2 R2336H ES cells, olaparib, CellTiter-Glo viability; active compounds read high. Put shortly: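 Mouse BRCA2 R2336H ES cells were reverse-transfected with siRNA (20 nM final), treated at 48 h with 500 nM olaparib, and read by CellTiter-Glo after 72 h. Scores: MAD-based z per siRNA, median per gene, seed off-target correction.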
(In general: In ATP-based viability assays light output follows the ATP content of the culture.)
In the case of GGAGAUCUAUGACAAGAAATT against Idh1, the z-score is inactive: 1.11. In the case of GGCGCAUGUUUCCAGCAAUTT against Tbx18, the z-score is inactive: 1.87. As to GCAUUAUUCAUAUGUUGGUTT against Fpr-rs4, the z-score is inactive: -0.102. With GGACCACUUUUUCAGACUCTT against Garnl1 the figure was inactive: -1.01; with GGCUUUUCUGGCUAUCCACTT against Anxa7, inactive: -1.47; with GGAUCUUGAACAAACCUGGTT against Akr1b3, inactive: 0.754.

In the case of GCCGACAGAUUGAAAUUCGTT against Supv3l1, the z-score is inactive: -0.911. Regarding GAAAAAUCAAAGAGAUUGGTT against Slc26a11, the z-score is inactive: 0.244. With “GGAAAACAUGUUCUCAUCUTT against 4930433N12Rik” the figure was inactive: 1.53. With GGAAACAUGAUGUUUUAAGTT against Bcl9 the figure was inactive: 1.41; with GGCCAUGACGAGGAAGAUGTT against Sv2b, inactive: 0.312; with GCAGCUUAUCUACCUGUACTT against Chad, inactive: -0.751. With GGAUUUGACCGUAAAAAGATT against Pcsk2 the figure was inactive: -0.417; with “GGCAGGUGAAUGUGGUAGATT against 1500005I02Rik”, inactive: -0.0858; with GGCAUCGAGAUUUAAUUGATT against Usp27x, inactive: -0.851. On to GAUAUAGCCACAGUGUUUUTT against V1ri2, for which the z-score was inactive: -0.0251. As to “GGAGACUCUUCAAUUGAGCTT against 1700025K23Rik”, the z-score is inactive: -0.0959. With CGUACUAUAUCAAAGAACATT against Ssa2 the figure was inactive: -0.301. With GGCUCAAAGUCCUCAGAGCTT against Atp6v1e1 the figure was inactive: -0.25.

Regarding GGACACAGAAAAAGUUGAATT against Tbc1d4, the z-score was inactive: 1.47. With GCAUAUGACACCGUAUCAGTT against Gprc5d the figure was inactive: 1.91; with GGCCAAAAGAACAAGGUUCTT against AW822216, inactive: 0.118.

Take GGACAACACACCAUUUCUCTT against Pcbp1: the z-score was inactive: -1.6. With GGACUUCGUGAACAAGAUCTT against Grin2b the figure was inactive: -0.244. Turning to GGUGAUUGACACCAAAUCUTT against Slk, the z-score was inactive: -0.398.

Regarding GCAAUUUCCAGAAGUUAUCTT against Baz2a, the z-score was inactive: 0.0352. GGACUGGUUCACUUUGUGGTT against Cox7a2l: the z-score was inactive: 2.76. As for GGAAGAUUCAUGAGAUAUUTT against Prdm5, the z-score is inactive: -1.24.

On to CCCAGUAAUAUGAAAAGAGTT against Gucy2f, for which the z-score is inactive: 0.464. With CGGACUUGAGAGCAGAACCTT against Oit1 the figure was inactive: -0.929. With “GCUAGAUAUCCGGAACCAATT against 1500032D16Rik” the figure was inactive: 0.192.

Consider GCACACUCACUUGGUUCGUTT against Dsg2, for which the z-score was inactive: 2.21.

Take CGGUGUUCAACUGCACUUUTT against Thsd1: the z-score is inactive: 0.977.

As to CCUCAUGGAUGUUCGUAGATT against P2ry10, the z-score was inactive: 0.121. For GGUUGCACAAAAGAAGCUGTT against Pemt, the z-score is inactive: -0.0239. With GGAUUCAGGAGUUCAUUGATT against Maea the figure was inactive: -1.09.

Consider GGAACUUUUUCAGAGCUCUTT against Senp3, for which the z-score is inactive: -1.61.

For CCGGAGUUAUACCGUAAGATT against Plaur, the z-score was inactive: 1.01.

With “GCUAGAGAUCCGGAUUAAGTT against A930018P22Rik”, the z-score was inactive: 0.783. Take CCGGAUAUUUAUCAGUGAUTT against Tiam2: the z-score was inactive: -1.03. GGGAUCAAAACAUACUGUGTT against Klra4: the z-score was inactive: -0.682. With GGAGCAGGCAUCGUGUUUATT against Cdh20 the figure was inactive: 0.402. Turning to GUUGAGUGGCUGUGAUAUATT against NMS, the z-score is inactive: -0.139. With CCAAUGCCGCCAGAAGUUATT against Siah2 the figure was inactive: 0.456; with GGCCGCUACCUUUAUGAACTT against Prpf3, inactive: -1.12; with GGUGGUUUAAAGACUUGAUTT against D1Pas1, inactive: 1.29.

Take GGCCAAGAAGACUUAUGUATT against Tufm: the z-score was inactive: 1.51. As for “CGCAAAAUGCUUACCUGCUTT against 1700018O18Rik”, the z-score was inactive: 0.808. For the sequence “CCACUUCCUUACGAUUGAUTT against 9430007A20Rik”, the z-score was inactive: 0.677. As to GGACCCAAUAAAACUUCCGTT against BC021608, the z-score was inactive: -0.54. With GGCCAUAAUCAAUCCUACCTT against H2afy the figure was inactive: -0.103. With GGUGCAGAAAGAGAGAAGATT against Papd1 the figure was inactive: -0.116; with GGACUGGUUCUUCAGUACCTT against Cradd, inactive: 2.24; with GCAAAUCUUGUAAUAACACTT against Uty, inactive: 0.305. With GGCACUCCCUAAUGAACUCTT against Adck5 the figure was inactive: 0.0432; with GGAACUAUCUUGGUGAAGCTT against Robo2, inactive: 0.0326; with GGGCUCUACAGUUUUUAAUTT against Atp5g3, inactive: 0.0286. In the case of GCUCCCAUACAGCACCUUCTT against Tbx2, the z-score is inactive: 0.885. With GGCAAAAAGGCAGUAGCCATT against Ncl the figure was inactive: -1.12.

As to GGUAUCAGACAAACACCAGTT against Syt5, the z-score is inactive: -0.651. With GGAUUUUCCAGGCAUGAGGTT against Ehd3 the figure was inactive: -1.18; with CGUGACUUCUAUCAUACUUTT against Fntb, inactive: -0.681. For the sequence GCCCAGAUUAUCAGAUCUGTT against Tnfaip2, the z-score was inactive: -0.525.

Take GGACUUAGAGAGUUUCUUGTT against Numa1: the z-score is inactive: 1.44. With “GCAAUUCAGACAUACAGGGTT against 5033403J15Rik” the figure was inactive: -0.0391; with CCCACUCCUUCUAAAAGUUTT against Cyp3a13, inactive: -0.255; with “CCACUUCCAUAGAGAUUUUTT against A730024F05Rik”, inactive: -0.0108. With “GCAGUUGUUUUGACUUACUTT against E330018D03Rik” the figure was inactive: -0.202; with CGCACUUACCGUGUCCUAUTT against Homer3, inactive: -0.593. With AUCUGAGGAAAUCGCCCUATT against Olfr1278 the figure was inactive: -1.06. With CCUGCUUACGUGAAAUACUTT against Garnl4, the z-score is inactive: -1.22.

Regarding UAGCCACUCAUCAUUCUAATT against LOC381806, the z-score was inactive: 1.64. Turning to GCAAUAAUCGUUCUCAAAATT against Prkab1, the z-score is inactive: 0.951. With GGCAGGAAAUUCAUUUUAATT against Zfy2 the figure was inactive: 1.3. For CCUGCUUGUCUCAAUAGUUTT against Krtap3-2, the z-score was inactive: 0.308.

For GGUUCCUGACCACUGGUACTT against Gstt1, the z-score was inactive: 0.289.

On to GGCUUGUCAGUGCAUCUCATT against Kif9, for which the z-score is inactive: -0.331. “GGUGCAUAAAUAAAUUCCUTT against B230317F23Rik”: the z-score is inactive: 0.571. On to GGCACCAGUAUCAGCCUUUTT against Mrpl15, for which the z-score was inactive: -1.23.

Regarding GGCCAUCUCAUUUUCAGGGTT against Olfr749, the z-score was inactive: 0.654. Regarding “GGGAGACAUUUUCAAGAUGTT against B430119L13Rik”, the z-score was inactive: 0.208. With GGGCAACAUGUCACUGAUCTT against Pgbd5 the figure was inactive: 1.53; with GCAGAGAAGGCAAUAAACUTT against Txnl2, inactive: 0.544; with GGAGAAAGUGGACCUUUUGTT against Etfb, inactive: -0.666. With GCUCUUAUACGCCUAGGUATT against Upk1a the figure was inactive: -0.16.

For the sequence CCUCCAAGACUUAAAAGUATT against D3Jfr1, the z-score is inactive: 0.345. With GGAUUUGGGUUUUCUAUAATT against H2-Bf the figure was inactive: 0.0232; with CCUUUUAUGCUAGUACUGATT against Olfr1504, inactive: 0.556; with GGACUUAUGAGCAAAUAAATT against BC021395, inactive: -0.657. For the sequence GGACUUCAGCGAAUUUGACTT against Ube4a, the z-score is inactive: -0.29.

“GGAAAAUUCCAUUCCAAAGTT against D8Ertd233e”: the z-score is inactive: -0.267.

Regarding “GGGACACCUGGAAUUAAGATT against 4921511F01Rik”, the z-score was inactive: 0.0208. With CCUUUCACACGUCAUCAGUTT against Trpc2 the figure was inactive: -0.0596.

With GGCUCACCUGAUACACUUUTT against Ramp2, the z-score was inactive: 0.578. With GGAUAGUGUUUCACUGUUATT against Igfals the figure was inactive: 0.903; with GGACUUUUGUGCUGUAUUUTT against Tcfcp2l1, inactive: -1.25; with GCUAAAUCAAGGAGACUAUTT against Art4, inactive: 1.47. With “AUUCGGGAAAAUUUUAGACTT against D11Bwg0517e” the figure was inactive: 1.68. With GGGAAGUUCAGUUCAAUACTT against Hps4 the figure was inactive: -1.06; with GCAACUGAAUUCCAGUUUUTT against Ugt1a2, inactive: -0.865.

GCCCUCUGUGAGUAGUAAUTT against Shrm: the z-score was inactive: -1.49. With GGGAUUCUUACUCAGACGCTT against Bmf the figure was inactive: -1.45; with CGCUUGUCUAGGGUACAAATT against Daam1, inactive: 0.281; with CCGCUGCAUAGCAUGUACATT against Dusp23, inactive: -0.268. With GGAGAUUCACCCUGAGUGUTT against Gtf3c1 the figure was inactive: -0.358.
